# Results taken from PubChem BioAssay AID588497 (NMMLSC, 2011).
# Out of some 360,000 compounds screened, about 780 (0.22%) were called active. The inconclusive results got no clear call from the source; some entries with a clear call stand among them for comparison. Cut-off read from the data, not from the text of the source: active = inhibition above about 35% (passing the limit was not always enough); inconclusive = no clear call, values can overlap the other calls.
# System: Botulinum neurotoxin type F light chain protease (Clostridium botulinum)
# Experiment: BoNT/F light chain protease inhibitors, primary screen, biochemical, flow cytometry, MLPCN library (AID 588497); note: plate controls were buffer without enzyme for full effect and enzyme alone for no effect
# Conditions: Multiplex microsphere protease cleavage assay, at 10 µM, active compounds read high
row,SMILES,inhibition
1,CCCCCCCCCCOC(=O)Cn1c(COc2ccc(OC)cc2)[n+](C)c2ccccc21,inconclusive: -25.8%
2,Cc1nc(C)c(-c2csc(Nc3ccccn3)n2)s1,inconclusive: -34.7%
3,CC(C)CC(=O)N1CCN(C(=O)c2ccc(F)cc2)CC1,inconclusive: 27.9%
4,Nc1c(C(=O)Nc2ccccc2F)sc2nc(-c3cccnc3)ccc12,inconclusive: 12.9%
5,Cc1ccc(Cl)cc1N1CCN(S(=O)(=O)c2ccc3c(c2)NC(=O)C(C)C(=O)N3)CC1 (stereo not given),inactive: -8.7%
6,CCOC(=O)CN(C(=O)CNC(=O)c1ccco1)C(C(=O)NC1CCCCC1)c1cccs1 (stereo not given),inconclusive: -4.9%
7,COC(=O)Cn1cc(C(=O)c2ccccc2F)c2ccccc21,inconclusive: 10.5%
8,CN(C)S(=O)(=O)c1ccc(C(=O)OCC2CCCO2)cc1 (stereo not given),inconclusive: 14%
9,CC1CCN(S(=O)(=O)c2cccc(C(=O)NNC(=O)c3ccco3)c2)CC1,inactive: -5.1%
10,Cc1cccc(C(=O)Nc2ccc(NC(=O)c3ccccc3)cc2)c1,inconclusive: 5.5%
11,CN(C)C(=O)CSc1nnc([C@H](Cc2ccccc2)NC(=O)OC(C)(C)C)o1,inconclusive: -5%
12,CC(=O)Nc1cc(-c2cccc(NS(C)(=O)=O)c2)cn2c(-c3ccc(F)c(Cl)c3)cnc12,inactive: 0.8%
13,Cc1ccc(NC(=O)C(=O)C2C(=O)Nc3ccccc32)cc1 (stereo not given),inactive: -2.6%
14,CCCCSc1nnc(-c2cc(Br)ccc2N)c(=O)[nH]1,inactive: 0.6%
15,O=c1[nH]nc(-c2ccc(F)cc2)cc1Cc1cccs1,inconclusive: -63.9%
16,CC(C)c1ccc(OCC(=O)Nc2ccncc2)cc1,active: 42.8%
17,Cc1cc(-c2n[nH]c(=S)n2/N=C/c2ccc(C)o2)n[nH]1,inconclusive: -25.8%
18,O=c1ccc2cc3c4c(c2o1)CCCN4CCC3,inconclusive: -21.3%
19,CCOC(=O)CCCCCC(=O)Nc1ccc2c(c1)C(=O)N([C@H](C)CO)C[C@H](C)[C@@H](CN(C)C(=O)Nc1ccccc1)OCCCC[C@@H](C)O2,inactive: 1.2%
20,Cc1ccc(NC(=S)N2CCN(S(C)(=O)=O)CC2)cc1C,inactive: -0.4%
21,CCOC(=O)c1sc(NC(=O)CCc2ccccc2)nc1C,inconclusive: 12.5%
22,CCN1C(=O)[C@@H]2C(C(=O)c3cnccn3)=NN[C@@H]2C1=O,inconclusive: -30.9%
23,CCOc1ccc(N2CC(C(=O)Nc3cc(S(=O)(=O)N4CCCCC4)ccc3C)CC2=O)cc1 (stereo not given),inactive: -7.8%

row,SMILES,inhibition
1,O=C1CC(N2CCN(S(=O)(=O)c3ccccc3F)CC2)C(=O)N1c1ccccc1F (stereo not given),inactive: -9.6%
2,CCOC(=O)NN1C(=O)c2ccccc2NC1c1ccc(OC)cc1 (stereo not given),inactive: -4%
3,COc1ccc(C(=O)NNC(=S)NC(=O)c2ccc(OC)cc2)cc1,inconclusive: 28.4%
4,Cc1ccc(N=C2NC(=O)C(CO)(CO)S2)cc1,inconclusive: -6.3%
5,Cc1nnc(NC(=O)CN2CCN(Cc3c(Cl)cccc3Cl)CC2)s1,inconclusive: -28.1%
6,CCCOc1ccc(N2C(=O)CC(N(CCc3ccc(OC)cc3)C(=O)c3ccccc3)C2=O)cc1 (stereo not given),inconclusive: 42.7%
7,CN(C)S(=O)(=O)c1ccc(C(=O)NCC(C)(C)CN=C2NS(=O)(=O)c3ccccc32)cc1,inactive: -0.6%
8,COCCOc1ccc(C(F)(F)F)cc1NC(=O)COC(=O)c1ccc(N2CCCC2=O)cc1,inactive: -1.7%
9,Cc1ccc(N(C(=O)c2snc(C(N)=O)c2N)C(C(=O)NC2CCCC2)c2ccc(C)o2)cc1 (stereo not given),inactive: -7.6%
10,CCCN(CC(=O)Nc1ccccc1C)C(=O)c1ccc(C2SCCS2)cc1,inconclusive: 11.3%
11,CC(=O)Nc1ccc(OCC(O)Cn2cccn2)cc1 (stereo not given),inconclusive: -14%
12,CCCCn1cnc2c(c(CC#N)nn2-c2ccccc2)c1=N,inactive: -0.1%
13,CSc1nc(O)c(C(c2ccc(O)cc2)c2c(O)nc(SC)[nH]c2=O)c(=O)[nH]1,inconclusive: 21%
14,CCCCCCCCCCCC(=O)NC(Cc1ccc(OC)c([N+](=O)[O-])c1)C(=O)O (stereo not given),inconclusive: -51.2%
15,O=C(OCc1nnc(-c2cccs2)o1)C1=NN(c2ccccc2)C(=O)CC1,inconclusive: -15.8%
16,O=C(O)c1cc(S(=O)(=O)N2CCCCC2)ccc1Cl,inconclusive: 34%
17,COc1ccc(OC)c(-c2nc3ccccc3nc2-c2ccccc2)c1,inconclusive: -88.7%
18,OCC1OC(n2cnc3ccccc32)CC1O (stereo not given),inconclusive: 1.8%
19,COc1ccccc1N1CCN(C(c2cccs2)C(C)NS(=O)(=O)c2ccccc2)CC1 (stereo not given),inactive: -9.6%
20,COc1cc(CNc2ncc(-c3ccc(Br)cc3)n2C)cc(OC)c1O,inconclusive: 0.9%
21,O=c1c2cc([N+](=O)[O-])cc([N+](=O)[O-])c2[nH]n1-c1ccccc1,inconclusive: -1.8%
22,O=c1cc(O)n(-c2ccccc2)c(=S)[nH]1,inconclusive: 10%
23,COc1ccc(C(C)(NC(C)=O)c2nc(-c3cncnc3)cs2)cc1 (stereo not given),inactive: -14.2%

# Copied from the list:
# COCCOc1ccc(C(F)(F)F)cc1NC(=O)COC(=O)c1ccc(N2CCCC2=O)cc1 – inhibition: inactive: -1.7%
# COc1ccc(OC)c(-c2nc3ccccc3nc2-c2ccccc2)c1 – inhibition: inconclusive: -88.7%
# COc1ccccc1N1CCN(C(c2cccs2)C(C)NS(=O)(=O)c2ccccc2)CC1 (stereo not given) – inhibition: inactive: -9.6%
# CC(=O)Nc1ccc(OCC(O)Cn2cccn2)cc1 (stereo not given) – inhibition: inconclusive: -14%
# O=c1cc(O)n(-c2ccccc2)c(=S)[nH]1 – inhibition: inconclusive: 10%
# O=C(O)c1cc(S(=O)(=O)N2CCCCC2)ccc1Cl – inhibition: inconclusive: 34%

# Following part.

row,SMILES,inhibition
1,O=c1[nH]c(=O)n(-c2cccc3ccccc23)c(O)c1/C=N/N1CCCCCC1,inconclusive: -18.3%
2,CN(C)/C=C1\C(=O)N(c2ccc(F)cc2F)C(c2cccnc2)S1(=O)=O (stereo not given),inconclusive: -32.6%
3,CCOC(CCNC(=O)c1cc2c(=O)[nH]c3ccccc3c2s1)OCC,inconclusive: 1.6%
4,COc1ncnc2c1ncn2CCCNC1CCN(Cc2ccccc2)CC1,inactive: -1.1%
5,CCOC(=O)C1CN(C(=O)OCC)CC1=NNC(N)=O (stereo not given),inactive: 0.7%
6,COc1ccc(C(=O)Nc2ccc(Nc3ccccc3)cc2)cc1OC,inconclusive: -9.5%
7,O=[N+]([O-])c1ccc(N2CCc3ccccc3C2)cc1,inconclusive: -4.2%
8,CCCCS(=O)(=O)N1CCCC(C(=O)Oc2ccc(Cl)cc2)C1 (stereo not given),inconclusive: -55.6%
9,O=C(Nc1sc2c(c1C(=O)c1ccc(Cl)cc1)CCCC2)c1cccnc1,inconclusive: 46.4%
10,COc1cccc(C(=O)N2CCCN(C)CC2)c1OC,active: 37.3%
11,COC(OC)c1nc(SCC(=O)Nc2cccc(Cl)c2)ncc1C(=O)O,inconclusive: -73.1%
12,O=C(CN1CCN(c2ccccc2O)CC1)NC(=O)NCc1ccccc1,active: 69.8%
13,CN(C)c1c(F)cc(C(=O)NCc2ccccc2)cc1F,inconclusive: -26.9%
14,COc1ccc(N2C(=O)CC(N3CCN(c4ccc(Cl)cc4)CC3)C2=O)cc1 (stereo not given),inactive: 22.8%
15,COc1cccc(C(=O)NCc2ccc3c(c2)OCO3)c1,active: 35.9%
16,CCOC(=O)CSc1nc2sc3c(c2c(=O)n1-c1ccccc1)CCN(C)C3,inconclusive: -10.8%
17,CCOc1ncccc1C(=O)OCC(=O)NCCCc1ccccc1,inconclusive: 0.6%
18,COc1ccc(Cc2nnc(NC(=O)c3ccccc3F)s2)cc1,inconclusive: -19.4%
19,CC1(C)Cc2nc(-c3ccccc3)nc(SCC(=O)N3CCCC3)c2CO1,inconclusive: -30.4%
20,CCOC(=O)c1sc(C(=O)OCC)c(OCCO)c1OCCO,inconclusive: -12.9%
21,CCOC(=O)c1ccc(-c2ccc(/C=N/NC(=O)c3cncc(Br)c3)o2)cc1,inconclusive: 33%
22,Cc1cc(C)c(C)c(S(=O)(=O)NC(C(=O)NCCc2ccco2)C(C)C)c1C (stereo not given),inactive: -7.8%
23,Cc1ccc(NC(=O)OCc2ccccc2S(C)=O)cc1 (stereo not given),inactive: -6.6%

row,SMILES,inhibition
1,O=S(=O)(c1ccc(Cl)cc1)N1CCCN(c2nc3ccc(Cl)cc3s2)CC1,inconclusive: -6.1%
2,c1ccc(Sc2ncccn2)nc1,inconclusive: 146%
3,Cc1ccc(C(=O)NN2C(=O)C3C4C=CC([C@@H]3C2=O)C42CC2)cc1 (stereo not given in full),inconclusive: 82.2%
4,N#Cc1ccc(OCC(=O)OCC(=O)N2CCc3ccccc32)cc1,inactive: -1.3%
5,OC(CNCc1ccccc1)c1ccccc1 (stereo not given),inconclusive: 3.9%
6,CN1CCCCCC1=Nc1ccc([N+](=O)[O-])cc1,active: 39.3%
7,O=C(COC(=O)c1ccco1)Nc1nc2ccc([N+](=O)[O-])cc2s1,inactive: 4.7%
8,COCc1nnc(NC(=O)CSc2ccccc2)s1,inactive: -1.4%
9,Cc1ccccc1NC(=O)CSc1nnc2ccc(-c3cccnc3)nn12,inconclusive: -344%
10,CCCN1CN(c2ccccc2)C(=S)N(c2ccccc2)C1,inconclusive: 15.9%
11,O=C(O)CC1(CC(=O)NCc2csc(-c3cccs3)n2)CCCCC1,inconclusive: -19.1%
12,COc1cc2nc(CC(C)C)n(NC(=O)c3ccccc3)c(=O)c2cc1OC,inactive: 2.6%
13,CCCn1c(N)c(N(CCOC)C(=O)c2ccc(N(C)S(=O)(=O)c3ccc(C)cc3)cc2)c(=O)[nH]c1=O,inconclusive: -8.5%
14,CCCn1c(-c2ccc(OC)cc2)nc2c(=O)n(C)c(=O)[nH]c21,inactive: 0.5%
15,O=C(N/N=C/C=C\c1ccccc1[N+](=O)[O-])c1cccnc1,inconclusive: -74.4%
16,O=C(c1ccc(Cl)cc1Cl)N1CCN(c2ccccn2)CC1,inconclusive: -6.5%
17,COc1cc(C2C(C#N)=C(N)Oc3n[nH]c(-c4cccs4)c32)cc(OC)c1O (stereo not given),inactive: 0.5%
18,Nc1cn(C2OC(CO)C(O)C2O)c(=O)[nH]c1=O (stereo not given),inconclusive: 2%
19,FC(F)(F)c1nnc(N2CCN(c3ccc(Cl)cc3)CC2)s1,inconclusive: -214%
20,NC(=O)c1cc(-c2ccccc2)nc(N2CCOCC2)n1,inconclusive: 22.4%
21,CCOC(=O)C1(C)CCCCCN1C(=O)/C=C/c1ccccc1 (stereo not given),inactive: 1.3%
